Data taken from US20060148746.

Chains of the proteins cited; added tags and fusions are not shown. Chains listed by the source or under a name are the forms on record and can include a tag or linker. Residues count along the entry.
UniProt P42260, 32-908: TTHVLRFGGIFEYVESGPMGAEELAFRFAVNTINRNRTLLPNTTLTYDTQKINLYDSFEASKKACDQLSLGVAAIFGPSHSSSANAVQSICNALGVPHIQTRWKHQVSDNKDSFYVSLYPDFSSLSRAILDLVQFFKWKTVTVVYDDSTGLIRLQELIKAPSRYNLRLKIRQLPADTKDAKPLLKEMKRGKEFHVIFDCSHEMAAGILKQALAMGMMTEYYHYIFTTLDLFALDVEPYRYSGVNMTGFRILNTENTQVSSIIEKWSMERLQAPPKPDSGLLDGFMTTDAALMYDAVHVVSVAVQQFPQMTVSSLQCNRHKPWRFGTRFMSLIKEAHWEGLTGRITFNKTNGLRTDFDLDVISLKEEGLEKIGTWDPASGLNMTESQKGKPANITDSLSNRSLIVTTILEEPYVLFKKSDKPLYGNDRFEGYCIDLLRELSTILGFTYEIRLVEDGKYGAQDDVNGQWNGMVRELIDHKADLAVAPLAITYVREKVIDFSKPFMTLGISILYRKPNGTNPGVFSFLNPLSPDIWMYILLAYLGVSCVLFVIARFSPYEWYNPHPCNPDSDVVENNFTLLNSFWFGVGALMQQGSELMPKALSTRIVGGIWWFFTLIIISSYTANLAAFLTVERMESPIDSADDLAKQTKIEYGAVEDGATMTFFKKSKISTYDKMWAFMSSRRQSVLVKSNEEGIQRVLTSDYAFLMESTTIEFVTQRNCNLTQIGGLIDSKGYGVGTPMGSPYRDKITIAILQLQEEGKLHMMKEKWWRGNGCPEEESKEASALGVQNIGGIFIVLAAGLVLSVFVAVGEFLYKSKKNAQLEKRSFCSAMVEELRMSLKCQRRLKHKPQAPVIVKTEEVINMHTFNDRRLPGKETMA
GluR4flip AMPA receptor (homomeric channel), one chain, as listed by the source: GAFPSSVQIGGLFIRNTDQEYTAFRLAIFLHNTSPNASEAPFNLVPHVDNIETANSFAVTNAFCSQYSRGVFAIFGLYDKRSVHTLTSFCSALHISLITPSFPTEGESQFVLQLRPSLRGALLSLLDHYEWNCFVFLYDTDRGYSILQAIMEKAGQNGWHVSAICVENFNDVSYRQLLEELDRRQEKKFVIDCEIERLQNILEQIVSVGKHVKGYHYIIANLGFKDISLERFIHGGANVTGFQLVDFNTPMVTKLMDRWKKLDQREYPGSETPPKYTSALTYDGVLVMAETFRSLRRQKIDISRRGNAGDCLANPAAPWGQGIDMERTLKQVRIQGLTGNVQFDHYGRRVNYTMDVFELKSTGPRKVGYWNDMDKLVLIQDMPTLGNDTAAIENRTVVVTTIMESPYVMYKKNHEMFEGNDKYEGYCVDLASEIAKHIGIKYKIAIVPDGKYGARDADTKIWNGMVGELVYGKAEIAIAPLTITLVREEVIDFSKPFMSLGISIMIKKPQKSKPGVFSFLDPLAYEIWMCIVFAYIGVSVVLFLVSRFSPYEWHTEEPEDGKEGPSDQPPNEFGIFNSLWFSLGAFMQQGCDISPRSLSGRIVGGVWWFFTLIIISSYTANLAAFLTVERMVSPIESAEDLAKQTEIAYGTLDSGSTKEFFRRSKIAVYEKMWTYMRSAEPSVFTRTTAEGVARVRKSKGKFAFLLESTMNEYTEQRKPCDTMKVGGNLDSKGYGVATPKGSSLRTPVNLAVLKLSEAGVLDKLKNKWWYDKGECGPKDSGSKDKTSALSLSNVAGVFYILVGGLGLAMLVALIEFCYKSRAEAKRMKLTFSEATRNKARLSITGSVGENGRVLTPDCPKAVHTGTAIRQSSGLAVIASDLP

What was measured:
[1] = test system: GluR4flip AMPA receptor (homomeric channel); assay: inhibition of the protein; conditions: both M1 and M2 required; improved specificity versus NBQX; protein on the cell surface; protein details: expressed in HEK-293S cells; variant of original 98-nt aptamer; dose not given here
[2] = target: GluR6Q kainate receptor (homomeric channel) (UniProt P42260); assay: inhibition of the protein; conditions: no inhibition at concentration tested; protein on the cell surface; protein details: expressed in HEK-293S cells; variant of original 98-nt aptamer; dose not given here

Sequence: GGGCGAAUUCACUGCCAUCUAGGCAGUAACCAGGAGUUAGUAGGACAAGUUUCGUCC [AN57 (57-nt minimal aptamer, M1+M2 mixture)]
- functional effect of the aptamer [1]: active
- functional effect of the aptamer [2]: not active

For some assays here: No signal at the amounts used counts as a negative.
